No constants are given. Whether binding was seen depends on the method and setting. Some results given as binding are weak or reduced against the parent protein; the word gives no strength. Where a sequence is shown, tags or fusion partners need not be part of it.
Legend:
[1] = biological target: T1, IL-18Rα: D3 (third extracellular domain of IL-18Rα, his6 tagged, from E. coli) (UniProt Q13478); assay: BS3 chemical cross-linking, reducing SDS-PAGE, Western blot with anti-IL-18Rα mAb (legend of FIG. 3A)
T1 sequence (looked up): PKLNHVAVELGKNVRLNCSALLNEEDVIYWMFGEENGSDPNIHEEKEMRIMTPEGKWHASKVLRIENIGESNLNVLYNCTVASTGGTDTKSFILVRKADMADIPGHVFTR

[2] = biological target: T1, IL-18Rα: D3 (third extracellular domain of IL-18Rα, his6 tagged, from E. coli); assay: BS3 chemical cross-linking, SDS-PAGE, Western blot with anti-IL-18Rα mAb

B1: pro IL-1F7b (full-length IL-1F7b) (ligand, human, UniProt Q9NZH6 1-218, looked up)
chain: MSFVGENSGVKMGSEDWEKDEPQCCLEDPAGSPLEPGPSLPTMNFVHTSPKVKNLNPKKFSIHDQDHKVLVLDSGNLIAVPDKNYIRPEIFFALASSLSSASAEKGSPILLGVSKGEFCLYCDKDKGQSHPSLQLKKEKLMKLAAQKESARRPFIFYRAQVGSWNMLESAAHPGWFICTSCNCNEPVGVTDKFENRKHIEFSFQPVCKAEMSPSEVSD
- binding [1]: binds
- binding [2]: binds
